According to EP0238982B1, “Anticholinergic compounds, pharmaceutical compositions and method of treatment” (UNIVERSITY OF FLORIDA, priority 1986, dated 1987):
For at least one compound, name, drawing or mass did not settle the structure.

Assay: Hydrolytic rate constants in aqueous buffered solution at pH 12, 37°C (HPLC)
Type: physicochemical
Procedure: A high pressure liquid chromatography (HPLC) method was used for the determination of rate of hydrolysis of the newly prepared tropanyl esters in aqueous buffered solution at pH 12.0 and in human plasma.
The chromatographic analysis was performed in a system consisting of LCD/Milton Roy Consta Metric III metering pump and LCD UV III Monitor Detector operated at 254 nm. A 30 cm x 3.9 mm (internal diameter) reverse phase ASI/U Bondpak C18 column operated at ambient temperature was used for the analysis. The mobile phase consisted of 32% acetonitrile in 0.01 M potassium dihydrogen phosphate, 0.004 M 1-octanesulfonic acid, sodium in 0.1% acetic acid at a flow rate of 2.3 ml/min.
Sodium hydroxide and sodium dibasic phosphate were used to prepare the buffer at pH 12. The ionic strength was maintained at 0.1 M with sodium chloride.
One hundred microliters of a freshly prepared solution of the compound in methanol was added to 10 ml buffered solution, previously equilibrated to 37°C in a water bath and mixed thoroughly to make an initial concentration of 6 x 10⁻³ mol. liter⁻¹. Samples of 100 µl were injected into the column at various time intervals. […] A mobile phase of 40% acetonitrile was used to separate compounds 4 and 6 at a flow rate of 2.0 ml/min. […]

## CN1C2CCC1CC(OC(=O)C(C(=O)OC1CCCCC1)c1ccccc1)C2 (racemic) [Compound 4, cyclohexyl (±)-α-(carboxy)-8-methyl-8-azabicyclo-[3.2.1]oct-3-yl-benzeneacetate]
0.01 M sodium hydroxide at pH 12 and 37°C, average of three runs
  observed pseudo first order hydrolytic rate constants (K) S.E.M.: 379 ± 0.8 x 10^-5 min^-1
Aqueous solution pH 12, 37°C, average of three runs ± SEM
  kobsd AQUEOUS SOLN, pH 12, 37°C: 379 ± 0.8 x 10^-5 min^-1
